Measured values as given in publication PMC7949047.
These are yes or no findings as the source states them, for the method shown. Binding seen in cells or lysates may run through a third protein. Some results given as binding are weak or reduced against the parent protein; the word gives no strength. Where a sequence is shown, tags or fusion partners need not be part of it.

Amino acid sequences for entries named in this document (tags omitted).
UniProt P35240: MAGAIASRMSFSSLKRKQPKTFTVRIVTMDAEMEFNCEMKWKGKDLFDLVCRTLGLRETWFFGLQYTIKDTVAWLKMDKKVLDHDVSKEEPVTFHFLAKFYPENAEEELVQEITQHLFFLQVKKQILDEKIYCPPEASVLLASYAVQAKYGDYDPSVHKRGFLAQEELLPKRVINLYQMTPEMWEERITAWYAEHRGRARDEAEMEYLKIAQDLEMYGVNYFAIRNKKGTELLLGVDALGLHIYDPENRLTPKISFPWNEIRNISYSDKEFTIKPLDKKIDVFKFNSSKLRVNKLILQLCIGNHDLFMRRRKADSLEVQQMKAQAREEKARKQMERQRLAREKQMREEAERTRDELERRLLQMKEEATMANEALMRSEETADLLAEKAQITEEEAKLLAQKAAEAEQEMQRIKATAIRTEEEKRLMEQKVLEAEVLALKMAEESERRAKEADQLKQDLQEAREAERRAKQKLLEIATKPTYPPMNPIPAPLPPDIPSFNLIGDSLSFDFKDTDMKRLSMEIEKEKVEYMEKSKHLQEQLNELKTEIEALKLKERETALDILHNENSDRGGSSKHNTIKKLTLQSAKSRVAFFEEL

T1: Myc-SAV1 (human) (UniProt Q9H4B6)
T1 sequence: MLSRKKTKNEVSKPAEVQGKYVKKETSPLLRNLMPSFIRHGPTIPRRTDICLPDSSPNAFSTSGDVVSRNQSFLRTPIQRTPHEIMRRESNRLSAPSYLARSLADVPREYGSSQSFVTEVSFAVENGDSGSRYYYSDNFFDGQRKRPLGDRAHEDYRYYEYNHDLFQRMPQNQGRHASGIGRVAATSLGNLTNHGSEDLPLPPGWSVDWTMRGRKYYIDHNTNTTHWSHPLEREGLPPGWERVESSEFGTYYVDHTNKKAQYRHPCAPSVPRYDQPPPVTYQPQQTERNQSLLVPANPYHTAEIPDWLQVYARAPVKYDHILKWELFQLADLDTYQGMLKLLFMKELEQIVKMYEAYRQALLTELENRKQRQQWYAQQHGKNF

T2: Flag-SAV1 (human) (UniProt Q9H4B6)
T2 sequence: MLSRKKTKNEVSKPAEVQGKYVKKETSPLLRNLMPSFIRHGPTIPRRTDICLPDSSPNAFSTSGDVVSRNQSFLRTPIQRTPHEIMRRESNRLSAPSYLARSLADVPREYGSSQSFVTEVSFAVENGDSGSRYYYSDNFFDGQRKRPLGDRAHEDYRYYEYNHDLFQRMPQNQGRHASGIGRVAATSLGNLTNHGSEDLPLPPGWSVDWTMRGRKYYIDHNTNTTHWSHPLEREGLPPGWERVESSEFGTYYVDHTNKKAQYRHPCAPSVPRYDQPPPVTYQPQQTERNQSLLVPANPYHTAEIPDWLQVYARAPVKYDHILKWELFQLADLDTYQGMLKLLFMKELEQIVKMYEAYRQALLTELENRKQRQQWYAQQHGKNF


Tests used:
Myc-SAV1 (human) = molecular target: T1, Myc-SAV1 (human); experiment: co-IP; HEK293T cells co-expressing Flag-CORO7, Myc-SAV1 and three levels of HA-NF2; precipitated with anti-Myc, blotted with anti-HA, anti-Flag and anti-Myc (Fig. 5B)
Flag-SAV1 (human) = molecular target: T2, Flag-SAV1 (human); experiment: co-IP; HEK293T cells co-expressing Myc-CORO7, HA-NF2 and Flag-SAV1, with or without serum deprivation; precipitated with anti-Flag (Fig. 5C)

binding (Myc-SAV1 (human)) | binding (Flag-SAV1 (human)) | Molecule
binds | binds | HA-NF2 (neurofibromatosis type II) (from UniProt P35240 1-595)
– | binds | Myc-CORO7 (protein, UniProt P57737 1-925) MNRFRVSKFRHTEARPPRRESWISDIRAGTAPSCRNHIKSSCSLIAFNSDRPGVLGIVPLQGQGEDKRRVAHLGCHSDLVTDLDFSPFDDFLLATGSADRTVKLWRLPGPGQALPSAPGVVLGPEDLPVEVLQFHPTSDGILVSAAGTTVKVWDAAKQQPLTELAAHGDLVQSAVWSRDGALVGTACKDKQLRIFDPRTKPRASQSTQAHENSRDSRLAWMGTWEHLVSTGFNQMREREVKLWDTRFFSSALASLTLDTSLGCLVPLLDPDSGLLVLAGKGERQLYCYEVVPQQPALSPVTQCVLESVLRGAALVPRQALAVMSCEVLRVLQLSDTAIVPIGYHVPRKAVEFHEDLFPDTAGCVPATDPHSWWAGDNQQVQKVSLNPACRPHPSFTSCLVPPAEPLPDTAQPAVMETPVGDADASEGFSSPPSSLTSPSTPSSLGPSLSSTSGIGTSPSLRSLQSLLGPSSKFRHAQGTVLHRDSHITNLKGLNLTTPGESDGFCANKLRVAVPLLSSGGQVAVLELRKPGRLPDTALPTLQNGAAVTDLAWDPFDPHRLAVAGEDARIRLWRVPAEGLEEVLTTPETVLTGHTEKICSLRFHPLAANVLASSSYDLTVRIWDLQAGADRLKLQGHQDQIFSLAWSPDGQQLATVCKDGRVRVYRPRSGPEPLQEGPGPKGGRGARIVWVCDGRCLLVSGFDSQSERQLLLYEAEALAGGPLAVLGLDVAPSTLLPSYDPDTGLVLLTGKGDTRVFLYELLPESPFFLECNSFTSPDPHKGLVLLPKTECDVREVELMRCLRLRQSSLEPVAFRLPRVRKEFFQDDVFPDTAVIWEPVLSAEAWLQGANGQPWLLSLQPPDMSPVSQAPREAPARRAPSSAQYLEEKSDQQKKEELLNAMVAKLGNREDPLPQDSFEGVDEDEWD
